Experimental data from patent US20050107430A1, “Antimicrobial and antiviral compounds” (priority 2003, published 2005).
Some results were stated once for a whole list of compounds, not compound by compound. At least one structure is not confirmed: it was looked up by name or label, or the drawing left a doubt.

Columns and labels:
M. avium intracellularie = experiment: MIC, M. avium intracellularie; type: cell-based, Mycobacterium avium intracellulare; details: Table 3
Candida albicans = experiment: MIC, Candida albicans; type: cell-based; details: Table 3

| Structure (SMILES) | MIC, M. avium intracellularie (M. avium intracellularie) | MIC, Candida albicans (Candida albicans) |
| --- | --- | --- |
| CN1CCN(C(=O)CCC(=O)Nc2cc3c4ccccc4c(Br)cc3c3ccccc23)CC1 [Tx-9, N-(12′-bromo, 6′-chrysenyl)-4-(4′N methyl-piperazinyl)-butane-1,4-dicarboxiamide] | > 30 µg/mL | > 30 µg/mL |
| CN1CCN(C(=O)CCC(=O)Nc2ccc3c(c2)c(Br)cc2c4ccccc4ccc32)CC1 [Tx-10, N-(12′-bromo, 2′-chrysenyl)-4-(4′N methyl-piperazinyl)-butane-1,4-dicarboxiamide] | > 30 µg/mL | > 30 µg/mL |
| O=C(CCC(=O)N1CCCCC1)Nc1cc2c3ccccc3c(Br)cc2c2ccccc12 [Tx-11, N-(12′-bromo, 6-chrysenyl)-4-(1′-piperidinyl)-butane-1,4-dicarboxiamide] | > 30 µg/mL | > 30 µg/mL |
| O=C(CCC(=O)N1CCCCC1)Nc1ccc2c(c1)c(Br)cc1c3ccccc3ccc21 [Tx-12, N-(12′-bromo, 2′-chrysenyl)-4-(1′-piperidinyl)-butane-1,4-dicarboxiamide] | > 30 µg/mL | > 30 µg/mL |
